Experimental data reported in US4603142A, “Cholesterol lowering method of use” (Wisconsin Alumni Research Foundation, priority 1984, dated 1986).
Where no unit stands, none is given here, and values compare only within one read-out.

Test: Body weight and weight gain in 3-week-old broiler male chickens fed supplemented corn diet
Assay type: in vivo, chicken

Compound: CC(C)=CCC/C(C)=C/CC/C(C)=C/CC[C@]1(C)CCc2c(C)c(O)c(C)c(C)c2O1 [Cholesterol inhibitor I, 2,5,7,8-tetramethyl-2 (4,8, 12-trimethyltrideca-3,7, 11-trienyl)chroman-6-ol]
- Influence on weight gain (5 ppm, Table 2): no influence on weight gain
- Gain in Weight (corn diet + 5 ppm, one-day-old to three-week-old): 308 gm
- Body Weight Final (corn diet + 5 ppm, three-week-old broiler male chickens, mean ± SD, N = 9): 356 ± 33
